At least one structure is not confirmed: it was looked up by name or label, or the drawing left a doubt.
How the values were obtained:
[1] = system: conventional hybrid maize (negative control); test: PPO herbicide post-emergence injury, negative control maize; type: in vivo; details: 14 days after treatment
[2] = system: transgenic F1 hybrid maize expressing APG6 operably linked to PPO H_N10; test: PPO herbicide post-emergence injury, maize with APG6-PPO H_N10; type: in vivo; details: 14 days after treatment
[3] = post-emergence (V3 to V4), 40 g ai/ha, with standard error

CCOC(=O)COc1ncccc1Oc1cc(-n2c(=O)cc(C(F)(F)F)n(C)c2=O)c(F)cc1Cl [S-3100, ethyl [3-2-chloro-4-fluoro-5-(1-methyl-6-trifluoromethyl-2,4-dioxo-1,2,3,4-tetrahydropyrimidin-3-yl)phenoxy]-2-pyridyloxyl acetate]
% Injury Negative control [1, 3]: 100% =/− 0
% Injury Negative control ([1]; post-emergence, 80 g ai/ha): 100% =/− 0
% Injury Negative control ([1]; post-emergence, 160 g ai/ha): 100% =/− 0
% Injury PPO H_N10 [2, 3]: 1.80% =/− 0.87
% Injury PPO H_N10 ([2]; post-emergence, 80 g ai/ha): 3.80% =/− 0.83
% Injury PPO H_N10 ([2]; post-emergence, 160 g ai/ha): 3.80% =/− 0.98

Reference: patent US10563220B2, “Compositions and methods for efficient targeting of transgenes” (priority 2015, dated 2020)
